PubChem BioAssay AID314 (DTP/NCI, 2004)
The list does not hold the whole screen: it gathers some chemical classes. Not every dose and run of a compound is shown. T/C: endpoint of the treated group in % of that of the vehicle group. Where survival is the endpoint, the PubChem record calls one and a half times the control and up active, and a quarter to a half above the control has no call in these data; cut-offs in other NCI protocols can differ. Some entries show no survivor count and are marked so; the dose need not have been tolerated. Schedule codes are those of the source, read here as Q, the interval in days (D) or hours (H), X, the number of doses. Counts like (3×) stand for listed records that agree. Some doses were run more than once; their values stand side by side, smallest first.

Test system: DBA/2 mice, P1534 leukemia ip, survival T/C
Experiment: NCI In Vivo Anticancer Drug Screen. Data for tumor model P1534 Leukemia (intraperitoneal) in DBA/2 mice
Details: T/C endpoint: mean survival time, schedule: Q01DX010 (ip), vehicle: saline, higher T/C = longer survival
Protocol: The antitumor activity of compounds was measured in mice bearing transplantable tumors. Survival or tumor size were measured and the results are expressed as the measurement made in the treated group (T) divided by the measurement made in the vehicle treated control group (C). The tumor model used in this assay is P1534 Leukemia (intraperitoneal) in DBA/2 mice

Question: How did the T/C (dose: 0.63 mg/kg/injection) turn out when `O=C(O)CN(CCCl)CCCl` was run?
Answer: Its T/C is 107 [survivor count not shown] and 110 % of control [survivor count not shown].

Question: What about the T/C (dose: 1.25 mg/kg/injection) of the same compound?
Answer: The T/C was 117 [survivor count not shown] and 146 % of control [survivor count not shown].

Question: And the T/C (dose: 2.5 mg/kg/injection)?
Answer: The T/C was 146 % of control [survivor count not shown].

Question: `ClCCNCCCl` was tested. Which T/C (dose: 5.0 mg/kg/injection) did it give?
Answer: The T/C was 100 % of control [survivor count not shown] (2×).

Question: And the T/C (dose: 10.0 mg/kg/injection)?
Answer: The T/C was 100 [survivor count not shown] and 107 % of control [survivor count not shown].

Question: And the T/C (dose: 18.8 mg/kg/injection)?
Answer: Its T/C is 96 [survivor count not shown] and 111 % of control [survivor count not shown].

Question: What about the T/C (dose: 20.0 mg/kg/injection) of the same compound?
Answer: Its T/C is 103 [survivor count not shown] and 107 % of control [survivor count not shown].

Question: What about the T/C (dose: 37.5 mg/kg/injection) of the same compound?
Answer: Its T/C is 114 % of control [survivor count not shown].

Question: And the T/C (dose: 40.0 mg/kg/injection)?
Answer: Its T/C is 110 [survivor count not shown] and 117 % of control [survivor count not shown].

Question: Which T/C (dose: 1.0 mg/kg/injection) does the source give for `CC(C(=O)O)N(CCCl)CCCl` (centres undefined) here?
Answer: Its T/C is 114 [survivor count not shown] and 117 % of control [survivor count not shown].

Question: What about the T/C (dose: 2.0 mg/kg/injection) of the same compound?
Answer: Its T/C is 117 [survivor count not shown] and 128 % of control [survivor count not shown].

Question: And the T/C (dose: 4.0 mg/kg/injection)?
Answer: The T/C was 121 [survivor count not shown] and 139 % of control [survivor count not shown].

Question: What does the source list for `ClCCN(CCCl)Cc1nc2ccccc2[nH]1`?
Answer: T/C (dose: 0.63 mg/kg/injection): 92 [survivor count not shown] and 103 % of control [survivor count not shown]; T/C (dose: 1.25 mg/kg/injection): 100 [survivor count not shown] and 111 % of control [survivor count not shown]; T/C (dose: 2.5 mg/kg/injection): 100 [survivor count not shown] and 123 % of control [survivor count not shown]; T/C (dose: 5.0 mg/kg/injection): 114 [survivor count not shown] and 146 % of control [survivor count not shown]

Question: How did the T/C (dose: 0.63 mg/kg/injection) turn out when `NC(Cc1cccc(N(CCCl)CCCl)c1)C(=O)O` (centres undefined) was run?
Answer: The T/C was 121 [survivor count not shown] and 138 % of control [survivor count not shown].

Question: What about the T/C (dose: 1.25 mg/kg/injection) of the same compound?
Answer: Its T/C is 135 [survivor count not shown] and 138 % of control [survivor count not shown].

Question: What about the T/C (dose: 2.5 mg/kg/injection) of the same compound?
Answer: Its T/C is 92 % of control [survivor count not shown].
